Test results taken from the supplement of paper PMC10849652.
The list shows a part of the results.

By UniProt entry, the sequences of proteins in these tests, tags left out. Where a name states a change or a piece, a line headed by the entry shows the natural chain unless it says otherwise.
UniProt Q13905: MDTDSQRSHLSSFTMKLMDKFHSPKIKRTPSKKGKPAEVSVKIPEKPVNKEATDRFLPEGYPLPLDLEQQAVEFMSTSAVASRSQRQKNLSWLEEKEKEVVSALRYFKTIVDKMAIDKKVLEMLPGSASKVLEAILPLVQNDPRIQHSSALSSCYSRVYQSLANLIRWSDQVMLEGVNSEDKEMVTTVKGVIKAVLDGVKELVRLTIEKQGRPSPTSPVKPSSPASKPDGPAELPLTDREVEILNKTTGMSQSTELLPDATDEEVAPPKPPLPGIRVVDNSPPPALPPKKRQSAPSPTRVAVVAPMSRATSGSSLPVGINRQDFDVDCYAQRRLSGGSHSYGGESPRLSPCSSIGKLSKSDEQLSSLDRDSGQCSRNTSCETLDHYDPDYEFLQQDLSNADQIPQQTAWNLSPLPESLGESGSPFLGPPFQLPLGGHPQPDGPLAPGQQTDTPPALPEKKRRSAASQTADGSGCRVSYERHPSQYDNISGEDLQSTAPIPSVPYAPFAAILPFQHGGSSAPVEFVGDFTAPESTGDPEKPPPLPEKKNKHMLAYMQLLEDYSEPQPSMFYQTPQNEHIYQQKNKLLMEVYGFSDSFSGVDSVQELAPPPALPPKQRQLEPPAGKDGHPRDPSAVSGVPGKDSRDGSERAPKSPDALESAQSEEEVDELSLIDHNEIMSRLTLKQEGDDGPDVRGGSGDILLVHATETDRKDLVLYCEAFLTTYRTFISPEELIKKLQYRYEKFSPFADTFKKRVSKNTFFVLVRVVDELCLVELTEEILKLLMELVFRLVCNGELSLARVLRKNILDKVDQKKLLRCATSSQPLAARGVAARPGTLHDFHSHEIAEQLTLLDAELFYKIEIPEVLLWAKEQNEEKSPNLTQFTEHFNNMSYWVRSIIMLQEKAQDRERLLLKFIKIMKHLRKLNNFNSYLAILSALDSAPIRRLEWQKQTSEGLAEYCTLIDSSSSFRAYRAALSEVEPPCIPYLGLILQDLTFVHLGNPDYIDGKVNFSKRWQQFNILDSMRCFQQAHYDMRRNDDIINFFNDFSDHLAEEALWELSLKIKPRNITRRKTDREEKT
UniProt P47897: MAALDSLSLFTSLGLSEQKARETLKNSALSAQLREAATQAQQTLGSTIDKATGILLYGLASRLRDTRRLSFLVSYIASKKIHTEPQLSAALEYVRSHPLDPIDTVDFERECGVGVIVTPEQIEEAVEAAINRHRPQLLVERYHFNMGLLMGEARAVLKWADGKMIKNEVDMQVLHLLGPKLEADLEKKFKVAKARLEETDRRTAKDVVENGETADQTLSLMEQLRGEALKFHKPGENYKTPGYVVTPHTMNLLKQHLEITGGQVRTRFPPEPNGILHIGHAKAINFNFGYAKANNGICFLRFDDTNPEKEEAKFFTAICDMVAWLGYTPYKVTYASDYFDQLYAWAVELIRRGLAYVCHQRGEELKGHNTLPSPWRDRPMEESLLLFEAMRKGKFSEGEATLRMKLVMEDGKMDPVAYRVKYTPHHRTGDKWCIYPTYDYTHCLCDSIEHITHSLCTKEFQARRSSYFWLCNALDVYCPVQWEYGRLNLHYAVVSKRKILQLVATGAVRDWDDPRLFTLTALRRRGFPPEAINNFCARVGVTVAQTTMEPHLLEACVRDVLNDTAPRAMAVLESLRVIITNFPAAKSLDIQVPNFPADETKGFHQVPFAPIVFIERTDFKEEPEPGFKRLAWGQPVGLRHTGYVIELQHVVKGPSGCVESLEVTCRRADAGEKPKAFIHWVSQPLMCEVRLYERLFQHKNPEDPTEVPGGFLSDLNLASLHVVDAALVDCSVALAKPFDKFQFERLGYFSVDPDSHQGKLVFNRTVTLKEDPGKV
UniProt P06737: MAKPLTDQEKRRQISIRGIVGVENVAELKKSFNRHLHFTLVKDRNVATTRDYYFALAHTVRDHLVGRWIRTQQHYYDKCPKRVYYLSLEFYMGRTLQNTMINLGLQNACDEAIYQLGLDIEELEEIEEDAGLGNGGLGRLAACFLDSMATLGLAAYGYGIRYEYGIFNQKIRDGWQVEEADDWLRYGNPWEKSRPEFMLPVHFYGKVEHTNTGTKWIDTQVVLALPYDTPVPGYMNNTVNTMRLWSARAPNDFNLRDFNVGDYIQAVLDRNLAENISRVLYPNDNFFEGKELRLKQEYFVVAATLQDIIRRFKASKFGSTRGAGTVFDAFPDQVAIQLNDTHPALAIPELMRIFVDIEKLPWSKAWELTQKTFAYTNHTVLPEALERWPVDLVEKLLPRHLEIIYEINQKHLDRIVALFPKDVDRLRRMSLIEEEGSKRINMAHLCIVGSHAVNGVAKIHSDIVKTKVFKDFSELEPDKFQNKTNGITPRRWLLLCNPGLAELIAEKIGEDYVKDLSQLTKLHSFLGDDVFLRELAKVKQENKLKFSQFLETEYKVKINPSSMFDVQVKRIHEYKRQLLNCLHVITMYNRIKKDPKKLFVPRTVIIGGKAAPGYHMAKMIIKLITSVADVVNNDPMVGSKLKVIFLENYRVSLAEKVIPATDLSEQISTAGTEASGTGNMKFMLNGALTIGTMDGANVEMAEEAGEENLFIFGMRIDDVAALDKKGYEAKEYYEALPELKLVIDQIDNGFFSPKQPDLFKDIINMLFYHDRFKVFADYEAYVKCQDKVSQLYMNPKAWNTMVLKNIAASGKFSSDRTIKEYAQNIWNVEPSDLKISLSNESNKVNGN
UniProt P51151: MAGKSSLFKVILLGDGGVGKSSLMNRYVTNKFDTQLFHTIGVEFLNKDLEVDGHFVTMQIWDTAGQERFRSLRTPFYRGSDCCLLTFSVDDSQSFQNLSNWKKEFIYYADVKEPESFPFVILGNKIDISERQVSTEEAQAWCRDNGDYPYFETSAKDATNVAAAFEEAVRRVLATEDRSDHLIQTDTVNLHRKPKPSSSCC
UniProt Q9H0H5: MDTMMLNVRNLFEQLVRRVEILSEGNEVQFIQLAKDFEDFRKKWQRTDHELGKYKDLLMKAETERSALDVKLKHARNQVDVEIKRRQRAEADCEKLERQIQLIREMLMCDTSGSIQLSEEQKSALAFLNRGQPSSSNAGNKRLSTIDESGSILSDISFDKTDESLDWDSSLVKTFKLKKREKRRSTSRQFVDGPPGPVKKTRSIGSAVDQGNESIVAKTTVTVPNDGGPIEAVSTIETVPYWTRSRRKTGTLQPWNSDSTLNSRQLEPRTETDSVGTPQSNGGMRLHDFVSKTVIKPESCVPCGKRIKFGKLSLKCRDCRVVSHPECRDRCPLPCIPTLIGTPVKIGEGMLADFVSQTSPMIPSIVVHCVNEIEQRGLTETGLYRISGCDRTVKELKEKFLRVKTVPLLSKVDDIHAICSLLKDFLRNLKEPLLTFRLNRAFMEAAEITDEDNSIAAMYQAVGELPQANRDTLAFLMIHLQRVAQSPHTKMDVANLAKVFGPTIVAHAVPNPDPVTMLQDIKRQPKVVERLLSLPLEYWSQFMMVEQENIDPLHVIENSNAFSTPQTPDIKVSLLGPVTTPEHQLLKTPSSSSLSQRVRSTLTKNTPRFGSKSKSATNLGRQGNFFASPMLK
UniProt P61224: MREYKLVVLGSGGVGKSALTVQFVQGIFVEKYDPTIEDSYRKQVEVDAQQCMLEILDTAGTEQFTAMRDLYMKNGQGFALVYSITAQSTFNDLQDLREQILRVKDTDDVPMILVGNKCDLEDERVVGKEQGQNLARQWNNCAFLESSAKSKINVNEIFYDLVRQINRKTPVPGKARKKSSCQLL
UniProt Q13637: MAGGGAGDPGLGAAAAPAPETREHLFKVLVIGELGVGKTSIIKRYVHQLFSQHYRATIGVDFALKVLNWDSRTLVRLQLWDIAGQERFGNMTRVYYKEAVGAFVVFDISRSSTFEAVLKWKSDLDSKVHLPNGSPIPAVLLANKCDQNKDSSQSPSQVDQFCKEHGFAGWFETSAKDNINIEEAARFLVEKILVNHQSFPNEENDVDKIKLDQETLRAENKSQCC
UniProt Q9NX57: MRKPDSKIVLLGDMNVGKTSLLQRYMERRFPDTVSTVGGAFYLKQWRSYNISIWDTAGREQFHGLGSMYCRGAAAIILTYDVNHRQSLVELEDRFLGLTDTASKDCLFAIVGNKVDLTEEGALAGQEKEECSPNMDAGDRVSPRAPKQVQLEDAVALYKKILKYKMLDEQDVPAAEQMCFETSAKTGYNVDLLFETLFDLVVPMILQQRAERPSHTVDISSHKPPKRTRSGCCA

Tests used:
Test in all cases: log2 fold change, soluble protein after heating vs DMSO (PISA); higher = thermal stabilisation; K562 lysate, 10 uM; active = over 0.2 and 3.5 SD of the protein, either way, in both replicates (recomputed)
lapatinib = compound: CS(=O)(=O)CCNCc1ccc(-c2ccc3ncnc(Nc4ccc(OCc5cccc(F)c5)c(Cl)c4)c3c2)o1 [lapatinib]
Outline: (§1)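 Following dounce homogenisation of K562 pellets in PBS pH 7.4 with 1 mM MgCl2, crude extract at 1 mg/mL protein was incubated for 30 min with 10 μM compound. Aliquots were then heated for 3 min over 48°C-58°C and pooled, NP-40 was added to 0.5% at 4°C, and soluble protein was recovered as the supernatant at 21,000xg for 90 min. Channel-sum-equalised TMTpro 16plex LC-MS/MS quantified this protein. Each value, from duplicates, is a log-two fold change in thermal stability relative to solvent controls.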

pictilisib = compound: CS(=O)(=O)N1CCN(Cc2cc3nc(-c4cccc5[nH]ncc45)nc(N4CCOCC4)c3s2)CC1 [pictilisib]
Outline: as §1

crizotinib = compound: C[C@@H](Oc1cc(-c2cnn(C3CCNCC3)c2)cnc1N)c1c(Cl)ccc(F)c1Cl [crizotinib]
Outline: as §1

[1] = compound: C[C@H](C1=CC=C(C=C1)C(=O)NC2=C3C=CNC3=NC=C2)N
Outline: as §1

duvelisib = compound: C[C@H](Nc1ncnc2nc[nH]c12)c1cc2cccc(Cl)c2c(=O)n1-c1ccccc1 [duvelisib]
Outline: as §1

gandotinib = compound: Cc1cc(Nc2cc(CN3CCOCC3)c3nc(C)c(Cc4ccc(Cl)cc4F)n3n2)n[nH]1 [gandotinib]
Outline: as §1

tozasertib = compound: Cc1cc(Nc2cc(N3CCN(C)CC3)nc(Sc3ccc(NC(=O)C4CC4)cc3)n2)n[nH]1 [tozasertib]
Outline: as §1

doramapimod = compound: Cc1ccc(-n2nc(C(C)(C)C)cc2NC(=O)Nc2ccc(OCCN3CCOCC3)c3ccccc23)cc1 [doramapimod]
Outline: as §1

bafetinib = compound: Cc1ccc(NC(=O)c2ccc(CN3CC[C@H](N(C)C)C3)c(C(F)(F)F)c2)cc1Nc1nccc(-c2cncnc2)n1 [bafetinib]
Outline: as §1

[2] = compound: Cc1cccc(CC(=O)N2CCc3c2ccc(-c2cn(C)c4ncnc(N)c24)c3F)n1
Outline: as §1

nilotinib = compound: Cc1cn(-c2cc(NC(=O)c3ccc(C)c(Nc4nccc(-c5cccnc5)n4)c3)cc(C(F)(F)F)c2)cn1 [nilotinib]
Outline: as §1

[3] = compound: Cc1nc(Nc2n[nH]c3c2CN(C(=O)N[C@H](CN(C)C)c2ccccc2)C3(C)C)c2sccc2n1
Outline: as §1

dasatinib = compound: Cc1nc(Nc2ncc(C(=O)Nc3c(C)cccc3Cl)s2)cc(N2CCN(CCO)CC2)n1 [dasatinib]
Outline: as §1

[4] = compound: Cc1ncc(-c2ccnc(Nc3ccc(S(C)(=O)=O)cc3)n2)n1C(C)C
Outline: as §1

[5] = compound: Cn1cc(-c2ccc3c(c2)CCN3C(=O)Cc2cccc(C(F)(F)F)c2)c2c(N)ncnc21
Outline: as §1

quisinostat = compound: Cn1cc(CNCC2CCN(c3ncc(C(=O)NO)cn3)CC2)c2ccccc21 [quisinostat]
Outline: as §1

tipifarnib = compound: Cn1cncc1[C@@](N)(c1ccc(Cl)cc1)c1ccc2c(c1)c(-c1cccc(Cl)c1)cc(=O)n2C [tipifarnib]
Outline: as §1

[6] = compound: NC(=O)Nc1cc(-c2cccc(F)c2)sc1C(=O)N[C@H]1CCCNC1
Outline: as §1

[7] = compound: NC(=O)c1cnc(N[C@@H]2CCCC[C@@H]2N)nc1Nc1cccc(-n2nccn2)c1
Outline: as §1

[8] = compound: NC1(c2ccc(-c3nc4ccn5c(=O)[nH]nc5c4cc3-c3ccccc3)cc2)CCC1
Outline: as §1

Measured: log2 fold change

RAPGEF1 isoform 3 (UniProt Q13905)
inactive: lapatinib -0.006 | pictilisib 0.002 | crizotinib -0.002 | [1] -0.072 | duvelisib -0.017 | gandotinib 0.082 | tozasertib 0.064 | doramapimod -0.021 | bafetinib -0.274 | [2] -0.022 | nilotinib -0.011 | [3] 0.032 | dasatinib -0.028 | [4] 0.009 | [5] 0.014 | quisinostat 0 | tipifarnib -0.057 | [6] -0.013 | [7] -0.002 | [8] -0.007

QARS (UniProt P47897)
inactive: lapatinib -0.022 | pictilisib -0.003 | crizotinib -0.036 | [1] 0.03 | duvelisib 0.01 | gandotinib -0.14 | tozasertib -0.032 | doramapimod 0.04 | bafetinib -0.053 | [2] -0.029 | nilotinib -0.012 | [3] -0.024 | dasatinib -0.068 | [4] -0.03 | [5] 0.049 | quisinostat 0.008 | tipifarnib -0.023 | [6] 0.043 | [7] -0.002 | [8] 0

PYGL (UniProt P06737)
inactive: lapatinib -0.003 | pictilisib -0.012 | crizotinib 0.008 | [1] -0.045 | duvelisib 0.011 | gandotinib 0.004 | tozasertib 0.023 | doramapimod -0.016 | bafetinib 0.02 | [2] 0 | nilotinib 0.022 | [3] 0 | dasatinib 0.123 | [4] -0.008 | [5] 0.003 | quisinostat 0.011 | tipifarnib 0.018 | [6] -0.002 | [7] 0.009 | [8] 0.041

RAB9A (UniProt P51151)
inactive: lapatinib -0.045 | pictilisib -0.032 | crizotinib 0.048 | [1] 0.009 | duvelisib 0.018 | gandotinib -0.047 | tozasertib -0.009 | doramapimod 0.005 | bafetinib -0.025 | [2] -0.059 | nilotinib -0.041 | [3] -0.038 | dasatinib -0.006 | [4] 0.013 | [5] -0.03 | quisinostat 0.069 | tipifarnib -0.035 | [6] -0.032 | [7] -0.014 | [8] -0.001

RACGAP1 (UniProt Q9H0H5)
inactive: lapatinib 0.074 | pictilisib -0.039 | crizotinib -0.072 | [1] -0.011 | duvelisib 0.045 | gandotinib -0.059 | tozasertib 0.028 | doramapimod 0.022 | bafetinib -0.032 | [2] 0.077 | nilotinib 0.068 | [3] -0.08 | dasatinib -0.025 | [4] -0.015 | [5] 0.02 | quisinostat 0.015 | tipifarnib 0.082 | [6] 0.004 | [7] 0.159 | [8] 0.034

RAP1B (UniProt P61224)
active: [1] 0.215
inactive: lapatinib 0.009 | pictilisib -0.006 | crizotinib 0.008 | duvelisib -0.045 | gandotinib -0.036 | tozasertib 0 | doramapimod 0.017 | bafetinib 0.17 | [2] -0.021 | nilotinib 0.032 | [3] 0 | dasatinib 0.045 | [4] 0.027 | [5] -0.002 | quisinostat -0.007 | tipifarnib -0.034 | [6] -0.007 | [7] -0.029 | [8] -0.025

RAB32 (UniProt Q13637)
inactive: lapatinib 0.015 | pictilisib 0.015 | crizotinib -0.042 | [1] -0.313 | duvelisib 0.003 | gandotinib 0.119 | tozasertib -0.022 | doramapimod -0.022 | bafetinib -0.022 | [2] 0.13 | nilotinib 0.021 | [3] -0.042 | dasatinib 0.04 | [4] 0.018 | [5] 0.043 | quisinostat -0.036 | tipifarnib 0.064 | [6] -0.027 | [7] -0.023 | [8] -0.032

RAB20 (UniProt Q9NX57)
inactive: lapatinib -0.141 | pictilisib 0.038 | crizotinib 0.004 | duvelisib 0.018 | tozasertib 0.013 | doramapimod 0.053 | bafetinib -0.023 | nilotinib -0.044 | [3] -0.131 | dasatinib -0.076 | [4] -0.106 | [5] 0.029 | quisinostat 0.018 | tipifarnib -0.221 | [6] -0.022 | [7] 0.065 | [8] -0.073
